Source: article PMC12663138
Results are given in words; binding and its absence hold for the method and conditions named. Binding seen in cells or lysates may run through a third protein. Some results given as binding are weak or reduced against the parent protein; the word gives no strength.

Amino acid sequences for entries named in this document (tags omitted). A change or cut given only in a name is not applied to a line headed by its entry. Residues count along the entry.
UniProt Q13797: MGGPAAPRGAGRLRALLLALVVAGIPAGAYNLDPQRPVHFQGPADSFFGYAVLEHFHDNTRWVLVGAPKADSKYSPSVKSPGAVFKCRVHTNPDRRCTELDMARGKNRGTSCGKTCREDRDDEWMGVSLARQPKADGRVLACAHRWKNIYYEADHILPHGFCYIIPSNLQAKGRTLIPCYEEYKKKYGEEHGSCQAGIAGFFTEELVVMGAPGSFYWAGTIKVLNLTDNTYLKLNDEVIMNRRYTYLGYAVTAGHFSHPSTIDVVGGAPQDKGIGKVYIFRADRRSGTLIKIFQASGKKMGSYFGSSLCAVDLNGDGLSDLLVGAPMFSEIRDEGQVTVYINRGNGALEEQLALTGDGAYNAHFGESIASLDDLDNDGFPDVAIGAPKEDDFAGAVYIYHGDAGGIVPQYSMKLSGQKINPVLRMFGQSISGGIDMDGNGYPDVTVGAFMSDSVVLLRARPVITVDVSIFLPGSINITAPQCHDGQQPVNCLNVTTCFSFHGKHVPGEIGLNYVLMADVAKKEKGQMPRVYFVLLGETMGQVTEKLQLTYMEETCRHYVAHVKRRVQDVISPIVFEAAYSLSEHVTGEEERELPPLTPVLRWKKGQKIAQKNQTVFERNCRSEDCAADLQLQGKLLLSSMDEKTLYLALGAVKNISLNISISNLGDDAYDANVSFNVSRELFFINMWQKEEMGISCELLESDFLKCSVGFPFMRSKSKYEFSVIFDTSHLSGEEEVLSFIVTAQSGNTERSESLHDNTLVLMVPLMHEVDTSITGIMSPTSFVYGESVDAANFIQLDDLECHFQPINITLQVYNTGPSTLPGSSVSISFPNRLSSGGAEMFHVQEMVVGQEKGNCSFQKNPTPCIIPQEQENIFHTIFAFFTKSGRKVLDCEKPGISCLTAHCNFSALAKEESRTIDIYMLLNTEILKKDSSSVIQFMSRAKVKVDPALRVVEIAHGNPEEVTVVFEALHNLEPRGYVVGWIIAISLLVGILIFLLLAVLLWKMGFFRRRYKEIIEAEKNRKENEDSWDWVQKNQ
UniProt P05556: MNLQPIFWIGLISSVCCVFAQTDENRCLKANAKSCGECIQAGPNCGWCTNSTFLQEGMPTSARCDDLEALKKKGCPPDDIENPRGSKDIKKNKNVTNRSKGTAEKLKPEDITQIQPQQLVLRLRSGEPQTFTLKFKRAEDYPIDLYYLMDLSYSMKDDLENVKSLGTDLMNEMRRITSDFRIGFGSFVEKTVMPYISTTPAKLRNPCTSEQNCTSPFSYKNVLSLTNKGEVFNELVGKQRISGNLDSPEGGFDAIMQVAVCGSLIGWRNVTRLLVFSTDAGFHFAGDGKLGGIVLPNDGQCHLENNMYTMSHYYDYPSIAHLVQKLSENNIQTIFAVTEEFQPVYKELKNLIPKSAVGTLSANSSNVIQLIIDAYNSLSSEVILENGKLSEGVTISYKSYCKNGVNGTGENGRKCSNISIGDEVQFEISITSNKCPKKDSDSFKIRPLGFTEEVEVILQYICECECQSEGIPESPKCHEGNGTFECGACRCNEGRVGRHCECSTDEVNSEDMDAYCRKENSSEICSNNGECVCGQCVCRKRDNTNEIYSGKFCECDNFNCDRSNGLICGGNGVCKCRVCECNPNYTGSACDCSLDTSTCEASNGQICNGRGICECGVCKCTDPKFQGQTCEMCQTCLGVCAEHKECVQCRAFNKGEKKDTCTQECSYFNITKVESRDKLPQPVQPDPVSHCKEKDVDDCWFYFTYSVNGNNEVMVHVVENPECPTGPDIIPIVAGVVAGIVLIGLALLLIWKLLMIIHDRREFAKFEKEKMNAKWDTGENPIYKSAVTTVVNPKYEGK
UniProt Q4LDE5, residues 18-3571: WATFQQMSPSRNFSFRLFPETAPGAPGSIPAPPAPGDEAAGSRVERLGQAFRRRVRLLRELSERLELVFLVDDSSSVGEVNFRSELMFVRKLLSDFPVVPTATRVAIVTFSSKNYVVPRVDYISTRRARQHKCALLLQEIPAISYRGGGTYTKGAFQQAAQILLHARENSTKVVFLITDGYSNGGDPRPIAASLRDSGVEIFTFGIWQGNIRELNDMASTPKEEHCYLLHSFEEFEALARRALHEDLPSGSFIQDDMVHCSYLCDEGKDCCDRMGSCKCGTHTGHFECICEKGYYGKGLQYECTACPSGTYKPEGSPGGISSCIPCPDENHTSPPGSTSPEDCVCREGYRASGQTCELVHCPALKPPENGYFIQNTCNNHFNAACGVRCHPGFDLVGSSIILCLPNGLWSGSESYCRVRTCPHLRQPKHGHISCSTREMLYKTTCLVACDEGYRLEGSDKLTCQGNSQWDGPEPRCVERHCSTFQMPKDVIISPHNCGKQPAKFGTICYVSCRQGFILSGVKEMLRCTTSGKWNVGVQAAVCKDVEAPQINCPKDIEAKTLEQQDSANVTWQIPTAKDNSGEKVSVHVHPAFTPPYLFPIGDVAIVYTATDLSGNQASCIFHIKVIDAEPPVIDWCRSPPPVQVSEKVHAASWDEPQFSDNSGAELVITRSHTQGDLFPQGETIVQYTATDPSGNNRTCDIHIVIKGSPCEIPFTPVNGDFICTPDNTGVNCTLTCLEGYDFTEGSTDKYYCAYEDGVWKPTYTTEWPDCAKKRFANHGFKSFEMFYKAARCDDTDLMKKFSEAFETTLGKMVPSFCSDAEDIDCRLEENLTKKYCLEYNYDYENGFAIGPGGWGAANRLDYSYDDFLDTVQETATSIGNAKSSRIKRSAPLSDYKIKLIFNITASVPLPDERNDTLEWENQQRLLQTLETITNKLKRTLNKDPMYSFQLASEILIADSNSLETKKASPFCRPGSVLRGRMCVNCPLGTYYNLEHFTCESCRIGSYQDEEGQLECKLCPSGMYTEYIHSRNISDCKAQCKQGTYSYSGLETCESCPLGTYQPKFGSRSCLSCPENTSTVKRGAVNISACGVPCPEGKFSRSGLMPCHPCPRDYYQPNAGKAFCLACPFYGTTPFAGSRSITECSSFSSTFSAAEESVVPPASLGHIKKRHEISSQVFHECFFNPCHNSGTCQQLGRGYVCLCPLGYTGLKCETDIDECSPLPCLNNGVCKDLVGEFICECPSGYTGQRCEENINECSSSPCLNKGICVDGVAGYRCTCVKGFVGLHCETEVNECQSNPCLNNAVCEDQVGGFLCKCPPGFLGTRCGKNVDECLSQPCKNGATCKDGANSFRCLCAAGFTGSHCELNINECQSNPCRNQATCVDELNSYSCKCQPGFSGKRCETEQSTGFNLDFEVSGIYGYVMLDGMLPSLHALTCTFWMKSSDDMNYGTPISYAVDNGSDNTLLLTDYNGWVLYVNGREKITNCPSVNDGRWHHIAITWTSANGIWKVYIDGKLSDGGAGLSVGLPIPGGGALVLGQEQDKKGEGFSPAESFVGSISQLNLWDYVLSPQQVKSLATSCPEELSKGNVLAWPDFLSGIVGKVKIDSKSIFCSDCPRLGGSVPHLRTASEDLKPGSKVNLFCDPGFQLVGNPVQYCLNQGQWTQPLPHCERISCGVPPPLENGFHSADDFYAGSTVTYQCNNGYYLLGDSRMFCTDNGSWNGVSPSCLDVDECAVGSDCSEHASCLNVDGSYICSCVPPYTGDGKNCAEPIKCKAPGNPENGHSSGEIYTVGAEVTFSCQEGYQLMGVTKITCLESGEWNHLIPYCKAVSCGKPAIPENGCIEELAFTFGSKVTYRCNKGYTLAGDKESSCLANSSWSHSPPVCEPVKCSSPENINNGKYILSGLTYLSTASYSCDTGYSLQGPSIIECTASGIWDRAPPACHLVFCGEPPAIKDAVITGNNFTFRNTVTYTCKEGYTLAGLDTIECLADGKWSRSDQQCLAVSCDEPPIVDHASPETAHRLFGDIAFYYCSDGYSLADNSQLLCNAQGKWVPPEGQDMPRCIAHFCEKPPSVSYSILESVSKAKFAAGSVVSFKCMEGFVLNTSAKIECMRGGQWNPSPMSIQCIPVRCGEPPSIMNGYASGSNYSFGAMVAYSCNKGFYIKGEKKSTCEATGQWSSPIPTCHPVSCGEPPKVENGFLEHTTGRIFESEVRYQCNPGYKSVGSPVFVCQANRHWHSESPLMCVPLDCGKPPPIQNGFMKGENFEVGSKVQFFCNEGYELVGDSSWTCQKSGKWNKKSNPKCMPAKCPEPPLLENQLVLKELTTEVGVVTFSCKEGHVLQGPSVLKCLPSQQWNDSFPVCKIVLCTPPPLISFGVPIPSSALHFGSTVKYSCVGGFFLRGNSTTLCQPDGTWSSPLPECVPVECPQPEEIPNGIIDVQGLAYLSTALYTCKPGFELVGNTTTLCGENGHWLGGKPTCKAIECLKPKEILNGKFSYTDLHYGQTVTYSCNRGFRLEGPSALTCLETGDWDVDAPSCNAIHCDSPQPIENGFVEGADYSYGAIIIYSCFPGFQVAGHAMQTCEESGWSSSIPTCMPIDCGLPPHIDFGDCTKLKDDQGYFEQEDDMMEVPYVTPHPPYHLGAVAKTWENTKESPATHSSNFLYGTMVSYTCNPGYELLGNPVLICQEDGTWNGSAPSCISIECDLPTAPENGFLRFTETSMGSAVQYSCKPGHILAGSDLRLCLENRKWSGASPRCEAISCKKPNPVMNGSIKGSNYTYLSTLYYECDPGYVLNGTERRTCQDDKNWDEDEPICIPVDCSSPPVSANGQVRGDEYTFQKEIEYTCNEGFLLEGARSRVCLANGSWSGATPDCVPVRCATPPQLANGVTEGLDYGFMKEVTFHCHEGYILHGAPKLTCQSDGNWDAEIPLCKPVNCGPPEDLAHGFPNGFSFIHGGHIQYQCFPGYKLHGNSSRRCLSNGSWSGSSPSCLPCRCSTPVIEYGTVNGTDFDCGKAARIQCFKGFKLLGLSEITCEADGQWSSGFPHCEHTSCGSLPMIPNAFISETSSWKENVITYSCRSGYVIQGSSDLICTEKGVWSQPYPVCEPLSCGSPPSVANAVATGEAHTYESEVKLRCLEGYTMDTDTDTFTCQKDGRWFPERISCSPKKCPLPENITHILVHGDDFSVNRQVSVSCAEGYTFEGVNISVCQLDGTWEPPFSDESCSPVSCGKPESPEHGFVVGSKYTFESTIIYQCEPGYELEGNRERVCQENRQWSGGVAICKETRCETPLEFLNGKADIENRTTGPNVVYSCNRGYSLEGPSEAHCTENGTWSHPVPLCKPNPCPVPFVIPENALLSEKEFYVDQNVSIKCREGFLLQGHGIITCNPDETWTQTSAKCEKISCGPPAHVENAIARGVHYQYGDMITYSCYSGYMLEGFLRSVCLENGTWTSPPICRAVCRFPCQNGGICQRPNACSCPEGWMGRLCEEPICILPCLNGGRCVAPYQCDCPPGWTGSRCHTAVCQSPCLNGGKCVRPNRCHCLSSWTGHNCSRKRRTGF

Biological target: integrin α9β1 (human (endogenous in RBE)) (UniProt Q13797+P05556)
Assay: co-IP; endogenous proteins; RBE cell lysates incubated overnight at 4 °C with the antibodies on a rotator, Protein A/G Dynabeads, normal IgG control, SDS-PAGE and immunoblotting

binding: binds
Substance: SVEP1 (sushi, Von Willebrand factor type A, EGF, and pentaxin) (from UniProt Q4LDE5 18-3571)
